In the supplement of paper PMC8256030:
Several values for one entry are separate records, joined by “and”; a condition that tells them apart may be missing. Equal entries are not always repeated. The list shows a part of the results. Single values are uncertain here, since repeats match poorly.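 HEK293T cells were given each compound shortly before transfection with a reporter in which red mCherry is followed by the SARS-CoV-2 frameshift element and then GFP in the −1 frame, so GFP appears only after frameshifting.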

test system: SARS-CoV-2 -1 PRF reporter mCherry-FSE-GFP(-1); experiment: percent effect, decrease of GFP/mCherry ratio (-1 PRF reporter) relative to controls; higher = stronger frameshift inhibition; conditions: 10 µM; 24 h; HEK293T

`Nc1ccn([C@H]2CC[C@@H](CO)O2)c(=O)n1` [zalcitabine] was tested. Which percent effect did it give?
The percent effect was -1.73% and -26.1%.

How did the percent effect turn out when `CN(C)CCOC(c1ccccc1)c1ccccc1` [diphenhydramine] was run?
The percent effect was 2.17% and -9.85%.

Which percent effect does the source give for `Fc1ccc([C@@H]2CCNC[C@H]2COc2ccc3c(c2)OCO3)cc1` [paroxetine] here?
The percent effect was -0.587% and 6.3%.

How did the percent effect turn out when `Cc1c(-c2cnccn2)ssc1=S` [oltipraz] was run?
The percent effect was 4.27% and -6.1%.

Which percent effect does the source give for `Clc1ccc2c(c1)C(N1CCNCC1)=Nc1ccccc1O2` [amoxapine] here?
Its percent effect is -3.01% and 0.878%.

How did the percent effect turn out when `CCCSc1ccc2[nH]c(NC(=O)OC)nc2c1` [albendazole] was run?
The percent effect was -21.9% and -8.22%.

For `CC(=O)O[C@H]1C[C@@H]2CC[C@@H]3[C@H](CC[C@@]4(C)[C@H]3C[C@H]([N+]3(C)CCCCC3)[C@@H]4OC(C)=O)[C@@]2(C)C[C@@H]1N1CCCCC1` [vecuronium bromide], which percent effect is on record?
The percent effect was 4.45% and 2.69%.

Which percent effect does the source give for `NCCC[C@H](N)C(=O)O` [ornithine] here?
The percent effect was -1.15% and -4.13% and -2.76%.

Which percent effect does the source give for `CCOC(=O)[C@H](CCc1ccccc1)N[C@@H](C)C(=O)N1CCC[C@H]1C(=O)O` [enalapril] here?
Its percent effect is 2.22% and -0.541%.

Which percent effect does the source give for `O=C(O)CCC(=O)c1ccc(-c2ccccc2)cc1` [fenbufen] here?
The percent effect was -5.89% and -10.4%.

Which percent effect does the source give for `CCCCOc1ccc(C(=O)CCN2CCCCC2)cc1` here?
The percent effect was -3.44% and -9.99%.

`CC(C)(C)NC(=O)[C@H]1CC[C@H]2[C@@H]3CC[C@H]4NC(=O)C=C[C@]4(C)[C@H]3CC[C@]12C` [finasteride] was tested. Which percent effect did it give?
Its percent effect is -4.93% and 1.76%.

Which percent effect does the source give for `O=C(O)c1ccccc1Nc1cccc(C(F)(F)F)c1` [flufenamic acid] here?
The percent effect was 2.95% and -0.283%.

How did the percent effect turn out when `C[C@]12CC[C@@H]3c4ccc(O)cc4CC[C@H]3[C@@H]1CC[C@@H]2O` [estradiol] was run?
The percent effect was -3.61% and -7.72%.

Which percent effect does the source give for `CO/N=C1\CN(c2nc3c(cc2F)c(=O)c(C(=O)O)cn3C2CC2)CC1CN` (configuration not stated) [gemifloxacin] here?
The percent effect was -2.72% and 2.43%.

How did the percent effect turn out when `CN(C)C(=O)C(CCN1CCC(O)(c2ccc(Cl)cc2)CC1)(c1ccccc1)c1ccccc1` [loperamide] was run?
The percent effect was -3.76% and -8.8%.

With `c1cc(CN2CCCNCCNCCCNCC2)ccc1CN1CCCNCCNCCCNCC1` [Mozobil] as the compound, how does the percent effect read?
Its percent effect is -12.7% and -3.64%.

Which percent effect does the source give for `CC[C@H](C)[C@H]1O[C@]2(C=C[C@@H]1C)C[C@@H]1C[C@@H](C/C=C(\C)[C@@H](O[C@H]3C[C@H](OC)[C@@H](O[C@H]4C[C@H](OC)[C@@H](O)[C@H](C)O4)[C@H](C)O3)[C@@H](C)/C=C/C=C3\CO[C@@H]4[C@H](O)C(C)=C[C@@H](C(=O)O1)[C@]34O)O2.CO[C@H]1C[C@H](O[C@H]2[C@H](C)O[C@@H](O[C@@H]3/C(C)=C/C[C@@H]4C[C@@H](C[C@]5(C=C[C@H](C)[C@@H](C(C)C)O5)O4)OC(=O)[C@@H]4C=C(C)[C@@H](O)[C@H]5OC/C(=C\C=C\[C@@H]3C)[C@]54O)C[C@@H]2OC)O[C@@H](C)[C@@H]1O` here?
The percent effect was 0.328% and -5.15%.

With `CCC1=C(C)CN(C(=O)NCCc2ccc(S(=O)(=O)NC(=O)N[C@H]3CC[C@H](C)CC3)cc2)C1=O` [Glimepiride] as the compound, how does the percent effect read?
The percent effect was -2.89% and -6.54%.

`COc1ccccc1OCC(O)CO` (configuration not stated) [guaifenesin] was tested. Which percent effect did it give?
Its percent effect is -10.4% and -8.06%.

Which percent effect does the source give for `CC(C)OC(=O)CCC/C=C\C[C@@H]1[C@@H](/C=C/[C@@H](O)COc2cccc(C(F)(F)F)c2)[C@H](O)C[C@@H]1O` [travoprost] here?
Its percent effect is -2.91% and -11.3%.

`CCCCNC(=O)NS(=O)(=O)c1ccc(C)cc1` [tolbutamide] was tested. Which percent effect did it give?
Its percent effect is -0.886% and -9.62%.

`CC(C(=O)O)c1ccc(-c2ccccc2)c(F)c1` (configuration not stated) [flurbiprofen] was tested. Which percent effect did it give?
The percent effect was -3.01% and -5.16%.

How did the percent effect turn out when `CCn1cc(C(=O)O)c(=O)c2cc(F)c(N3CCNCC3)cc21` [norfloxacin] was run?
Its percent effect is -4.31% and 2.15%.

With `C=C1/C(=C\C=C2/CCC[C@]3(C)[C@@H]([C@H](C)/C=C/[C@@H](O)C4CC4)CC[C@@H]23)C[C@@H](O)C[C@@H]1O` [calcipotriol] as the compound, how does the percent effect read?
The percent effect was -8.03% and 0.422%.

`CC(c1cc2ccccc2s1)N(O)C(N)=O` (configuration not stated) [zileuton] was tested. Which percent effect did it give?
Its percent effect is -1.73% and -12.4%.

How did the percent effect turn out when `CC1(C)O[C@@H]2C[C@H]3[C@@H]4C[C@H](F)C5=CC(=O)C=C[C@]5(C)[C@@]4(F)[C@@H](O)C[C@]3(C)[C@]2(C(=O)CO)O1` [fluocinolone acetonide] was run?
Its percent effect is -5.49% and -1.32%.

Which percent effect does the source give for `Clc1ccc(COC(Cn2ccnc2)c2ccc(Cl)cc2Cl)c(Cl)c1` (configuration not stated) [miconazole] here?
The percent effect was -8.18% and -7.68%.

`OC(Cn1cncn1)(Cn1cncn1)c1ccc(F)cc1F` [fluconazole] was tested. Which percent effect did it give?
The percent effect was 1.17% and -9.64%.

How did the percent effect turn out when `CN1[C@@H](CC(=O)c2ccccc2)CCC[C@H]1C[C@H](O)c1ccccc1` [lobeline] was run?
Its percent effect is 3.69% and -0.2%.

`CC(C)NNC(=O)c1ccncc1` [iproniazid] was tested. Which percent effect did it give?
Its percent effect is -3.95% and -5.81%.

How did the percent effect turn out when `Clc1ccc(CO/N=C(\Cn2ccnc2)c2ccc(Cl)cc2Cl)c(Cl)c1` [Oxiconazole] was run?
The percent effect was -0.804% and -9.62%.
